Measurements from PubChem BioAssay AID504834 (National Center for Advancing Translational Sciences (NCATS), 2011).
In all, about 320,000 compounds went through this assay and about 22,000 (6.9%) were called active. Inconclusive results, whose numbers are uncertain, are shown with a selection of clear calls. Calls come from the whole dose curve; as a rule, active = well fitted inhibition curve with a large enough effect; inconclusive = small, poorly fitted or top-dose-only effect, or another doubt; inactive = no such curve, though single readings can be large or run the other way. Potencies of inconclusive entries are doubtful fits and often do not repeat.

Assay: Primary qHTS for delayed death inhibitors of the malarial parasite plastid, 96 hour incubation
Details: P. falciparum luciferase reporter growth; series mostly up to 28.7 µM; activity change, negative = inhibition: at the top concentration
Outline: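 Readout is luminescence from an integrated firefly luciferase in P. falciparum. Red cells, 2% hematocrit and 0.05% parasitemia final, were cultured with compound through two parasite generations (96 hours) at 37 C, 5% CO2.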
% is set by controls: 0 for no effect and ±100 for the full control effect; potency is the fitted concentration of half-maximal effect.

SMILES | Potency | activity change, negative = inhibition
O=C(Nc1nc2c(s1)CCCC2)c1cccc(S(=O)(=O)N2CCCc3ccccc32)c1 | inconclusive: 18.5 µM [inhibitor, single point] | –
O=C(CSCc1ccccc1)N/N=C/c1cc2c(cc1Br)OCO2 | – | inactive: 207%
O=C(CS(=O)(=O)c1cn(Cc2ccc(F)cc2)c2ccccc12)N1CCCCC1 | inconclusive: 18.5 µM [inhibitor, single point] | –
CCCc1cc(=O)[nH]c(-n2[nH]c3c(c2=O)CCCC3)n1 | inconclusive: 18.5 µM [inhibitor, single point] | –
Cc1noc(C)c1CCC(=O)N1CCCC(CCC(=O)NCc2ccc(F)c(F)c2)C1 (stereo unspecified) | – | inactive: -0.417%
CCCCNCCOc1ccccc1-c1ccccc1 | inconclusive: 11.7 µM [inhibitor, single point] | –
Cc1[nH]nc2c1C(c1cccc(OC(=O)N3CCOCC3)c1)C(C#N)=C(N)O2 (stereo unspecified) | inconclusive: 14.7 µM [inhibitor, single point] | –
CC1(C)C(=O)Nc2ccccc2N1C(=O)c1ccc([N+](=O)[O-])cc1 | inconclusive: 3.7 µM [inhibitor, partial curve] | –
CCCOc1ccc(C2C(C(=O)c3ccc(C)o3)=C(O)C(=O)N2CCN2CCOCC2)cc1OC (stereo unspecified) | inconclusive: 4.15 µM [inhibitor, single point] | –
COc1ccc(Oc2ncccc2NC(=O)c2cccc(C)c2C)cc1 | inconclusive: 2.33 µM [inhibitor, full curve, poor fit] | –
CCN(Cc1ccccc1)c1ccc(/C=N/NC(=S)NC(C)C)cc1 | – | inactive: 3.85%
CN(C)S(=O)(=O)c1ccc(C(=O)OCC2CCCO2)cc1 (stereo unspecified) | – | inactive: 2.45%
O=C(Nc1ccc2[nH]c(=O)[nH]c2c1)c1ccc(Br)o1 | inconclusive: 18.5 µM [inhibitor, single point] | –
CCN(Cc1ccncc1)C(=O)CCc1nnc(CCc2ccc(OC)cc2)o1 | inconclusive: 1.17 µM [inhibitor, partial curve, poor fit] | –
COc1ccc(NC(=O)c2cc(-c3ccc(C)c(C)c3O)n[nH]2)cc1Cl | inconclusive: 16.5 µM [inhibitor, partial curve, poor fit] | –
CC1CC(C)CN(C(=O)C2CCC(CNS(=O)(=O)c3ccccc3)CC2)C1 (stereo unspecified) | inconclusive: 13.1 µM [inhibitor, partial curve, poor fit] | –
CN(C)c1ccc(/C=N\NC(=O)CC#N)cc1 | – | inactive: 90.3%
CCc1n[nH]c(=S)n1/N=C/c1cc(OC)cc([N+](=O)[O-])c1O | – | inactive: 64.8% [at 5.75 µM]
CN(C)C(CNC(=O)CCc1nc2cc(Cl)ccc2n(Cc2ccccc2)c1=O)c1ccccc1 (stereo unspecified) | active: 10.4 µM | –
Cc1cc(CNC(=O)COc2ccccc2)c2ccccc2n1 | – | inactive: 38%
Cc1ccc(Cl)cc1N1CCN(S(=O)(=O)c2ccc3c(c2)NC(=O)C(C)C(=O)N3)CC1 (stereo unspecified) | inconclusive: 2.94 µM [inhibitor, partial curve, poor fit] | –
CC1CCCCN1CCCNC(=O)CN1C(=O)c2cccnc2Oc2ccccc21 (stereo unspecified) | inconclusive: 10.4 µM [inhibitor, partial curve, poor fit] | –
CCCCN(C(=O)C1CCCC1)c1c(N)n(CC(C)C)c(=O)[nH]c1=O | – | inactive: 12.6%
CCCC1NC(C(=O)O)Cc2c1[nH]c1ccccc21 (stereo unspecified) | inconclusive: 18.5 µM [inhibitor, partial curve, poor fit] | –

Arranged by count of non-hydrogen atoms (falling): part of the list above
SMILES | Potency | activity change, negative = inhibition
CN(C)C(CNC(=O)CCc1nc2cc(Cl)ccc2n(Cc2ccccc2)c1=O)c1ccccc1 (stereo unspecified) | active: 10.4 µM | –
CC1CC(C)CN(C(=O)C2CCC(CNS(=O)(=O)c3ccccc3)CC2)C1 (stereo unspecified) | inconclusive: 13.1 µM [inhibitor, partial curve, poor fit] | –
Cc1cc(CNC(=O)COc2ccccc2)c2ccccc2n1 | – | inactive: 38%
CN(C)c1ccc(/C=N\NC(=O)CC#N)cc1 | – | inactive: 90.3%

More entries follow:

SMILES | Potency | activity change, negative = inhibition
CCOC(=O)CN(C(=O)CNC(=O)c1ccco1)C(C(=O)NC1CCCCC1)c1cccs1 (stereo unspecified) | inconclusive: 18.5 µM [inhibitor, single point] | –
Cc1ccccc1C(=O)O/N=C/c1c(N2CCOCC2)n(C)c2ccccc12 | active: 2.33 µM | –
O=C(NCc1ccc(F)cc1)c1cc2c(s1)CS(=O)(=O)C2 | active: 6.57 µM | –
CN(C)c1ccc(-c2noc(C3CCN(S(=O)(=O)c4cccc(C(=O)O)c4)CC3)n2)cc1 | inconclusive: 13.1 µM [inhibitor, partial curve] | –
O=S(=O)(c1ccc(F)c(F)c1F)N1CCN(C(=S)NCc2ccccc2)CC1 | inconclusive: 18.5 µM [inhibitor, single point] | –
COc1ccc(NC(=O)/C=C/c2ccc(Br)o2)cn1 | – | inactive: 9.35%
O=C(NCCCN1CCCC1=O)c1ccc(S(=O)(=O)Nc2cccc(C(F)(F)F)c2)cc1 | – | inactive: -0.497%
CCOP(=S)(OCC)N1CCOCCOCCN(P(=S)(OCC)OCC)CCOCCOCC1 | inconclusive: 16.5 µM [inhibitor, single point] | –
COc1ccc(OC)c(NC(=O)CCC(=O)Nc2nnc(C(C)C)s2)c1 | – | inactive: 22.2%
Cc1ccc(N(CCC(=O)N2CCOCC2)S(=O)(=O)c2ccccc2)cc1 | – | inactive: -3.32%
CCC(=O)Nc1ccc(C(=O)NNC(=O)c2ccc(Cl)cc2)cc1 | inconclusive: 18.5 µM [inhibitor, single point] | –
COc1ccc(S(=O)(=O)c2nnn(-c3ccccc3Cl)c2N)cc1 | inconclusive: 18.5 µM [inhibitor, single point] | –
CCN1CCN(c2ccc(S(=O)(=O)N3CCOCC3)cc2NC(=O)/C=C/c2ccc(C)cc2)CC1 | inconclusive: 18.5 µM [inhibitor, single point] | –
CCCCNCCCOc1ccc(C)cc1Br | active: 2.33 µM | –
CC(NC(=O)c1cc2cc(F)ccc2[nH]1)c1ccccc1 (stereo unspecified) | inconclusive: 18.5 µM [inhibitor, single point] | –
CC(C)CC(=O)N1CCN(C(=O)c2ccc(F)cc2)CC1 | active: 13.1 µM | –
c1ccc2sc(N3CCOCC3)nc2c1 | – | inactive: 318%
COc1cc(C)ccc1OCCOCCOc1ccccc1Br | active: 2.62 µM | –
COc1cc(NC(=O)CCC2CCCC2)cc(-n2cnnn2)c1 | inconclusive: 18.5 µM [inhibitor, single point] | –
Clc1ccc(OCCCCCN2CCCC2)c(Br)c1 | inconclusive: 14.7 µM [inhibitor, single point] | –
C=CCNC(=O)c1ccc(Sc2ccc(C)cc2)c([N+](=O)[O-])c1 | inconclusive: 0.522 µM [inhibitor, full curve, poor fit] | –
CC1CCN(C(=O)COC(=O)c2cc(Cl)c3c(c2)OCO3)CC1 | – | inactive: 223%
Cc1ccc(NC(=O)c2nc[nH]c2C(=O)N2CCc3ccccc3C2)cc1 | inconclusive: 2.94 µM [inhibitor, single point] | –
COC(=O)c1ccc(NC(=O)Cn2nnc(-c3cccs3)n2)cc1 | inconclusive: 18.5 µM [inhibitor, single point] | –

SMILES | Potency | activity change, negative = inhibition
COCCn1c(SCC(=O)Nc2cccc(S(N)(=O)=O)c2)nc2cc(Cl)ccc2c1=O | inconclusive: 18.5 µM [inhibitor, single point] | –
Cc1c(C(=O)N2CCCCC2)c(S(=O)(=O)N2CCC(C)CC2)c(C)n1C | – | inactive: 38.6%
CCOc1ccc(/C=N/NC(=O)c2ccccc2C)cc1CN1CC2CC(C1)c1cccc(=O)n1C2 (stereo unspecified) | inconclusive: 16.5 µM [inhibitor, single point] | –
COc1ccc(N2CCN(C(=O)c3ccccc3NC(=O)c3ccccc3)CC2)cc1 | inconclusive: 18.5 µM [inhibitor, single point] | –
O=C(Nc1cc(Cl)ccc1N1CCOCC1)c1ccc(F)c(S(=O)(=O)N2CCOCC2)c1 | inconclusive: 10.4 µM [inhibitor, single point] | –
CCOC(=O)Nc1nc(-c2ccccc2)c(C(=O)c2ccccc2)s1 | inconclusive: 2.94 µM [inhibitor, partial curve, poor fit] | –
CC(=O)Nc1ccc2c(c1)nc(CCN1CCC(C)CC1)n2C | – | inactive: 10.7%
CCOC(=O)N1CCN(C(=O)CN(c2ccc(Oc3ccccc3)cc2)S(C)(=O)=O)CC1 | inconclusive: 9.28 µM [inhibitor, partial curve, poor fit] | –
CCN1CCN(C(=O)CS(=O)(=O)Cc2nc(-c3cccc(OC)c3)oc2C)CC1 | – | inactive: 0.978%
COc1ccc(C(C)=O)cc1COC(=O)CSC(C)C(=O)Nc1cc(C)on1 (stereo unspecified) | – | inactive: 13.7%
CCOc1ccc(Br)cc1C(=O)Nc1ccc(C(=O)NCC(C)C)cc1 | inconclusive: 18.5 µM [inhibitor, single point] | –
COc1cccc(N=Nc2ccc(O)c3ncccc23)c1 | inconclusive: 0.828 µM [inhibitor, full curve] | –
N#Cc1c(NC(=O)CSC2=NCCS2)sc2c1CCCC2 | active: 2.33 µM | –
COc1ccc(NC(=O)Nc2ccc(C)cc2OC(F)F)cc1OC | – | inactive: -0.868%
S=c1[nH]nc(NCCCN2CCOCC2)s1 | – | inactive: 3.72%
S=C(Nc1ccc(Cl)cc1)NN1CCOCC1 | inconclusive: 9.28 µM [inhibitor, single point] | –
COc1ccc(CCNC(=O)C/C(C)=N/NC(=O)C(c2ccccc2)c2ccccc2)cc1OC | inconclusive: 4.15 µM [inhibitor, single point] | –
C(=C\c1ccco1)/c1nc2ccccc2[nH]1 | – | inactive: 0%
C/C(=C\c1ccco1)C1Nc2cccc3cccc(c23)N1 | inconclusive: 10.4 µM [inhibitor, single point] | –
COc1cc(OC)c2ccc(=O)oc2c1C(CCN1CCCC1)c1ccc(N(C)C)cc1 (stereo unspecified) | inconclusive: 16.5 µM [inhibitor, single point] | –
Cc1ccc(Cn2ccc(NC(=O)c3c(-c4ccccc4Cl)noc3C)n2)cc1 | inconclusive: 0.037 µM [inhibitor, full curve, poor fit] | –
COC(=O)C(C)N(C(=O)c1ccc(C(=O)c2ccccc2)cc1)c1c(C)cccc1C (stereo unspecified) | inconclusive: 18.5 µM [inhibitor, single point] | –
CN(CC(=O)Nc1ccc(Cl)c(C(F)(F)F)c1)C(=O)Cc1n[nH]c(=O)c2ccccc12 | inconclusive: 18.5 µM [inhibitor, single point] | –
